# In PubChem BioAssay AID588497 (NMMLSC, 2011):
# In all, about 360,000 compounds went through this assay and about 780 (0.22%) were called active. Inconclusive means that the source gave no clear call. Such entries were picked first, then a sample of the others. Rule as the data show it: active = inhibition above about 35% (passing the limit was not always enough); inconclusive = no clear call, values can overlap the other calls.
# Tested on: Botulinum neurotoxin type F light chain protease (Clostridium botulinum)
# Experiment: BoNT/F light chain protease inhibitors, primary screen, biochemical, flow cytometry, MLPCN library (AID 588497); also: plate controls were buffer without enzyme for full effect and enzyme alone for no effect
# Conditions: Multiplex microsphere protease cleavage assay, at 10 µM, hits give high values
row,Compound,inhibition
1,O=Cc1ccc(OCCCOc2cccc3cccnc23)cc1,inconclusive: -17.7%
2,Cc1cc(OCC(=O)OCC(=O)N2CCCCC2)ccc1Cl,inactive: 0.2%
3,Cc1ccc(S(=O)(=O)N(CC(=O)N/N=C/c2cccc(C)c2)c2cccc3cccnc23)cc1,inconclusive: -3.1%
4,O=c1oc(-c2ccccc2NS(=O)(=O)c2ccc(Cl)cc2)nc2ccccc12,inconclusive: 8.3%
5,CC1(C)CC(NC(=O)C2CCC(=O)N(Cc3ccccc3F)C2)CC(C)(C)C1 (stereo not drawn),inactive: 4.4%
6,CCCNC(=O)Nc1cc(S(=O)(=O)CC)ccc1O,inconclusive: 18.3%
7,CCOC(=O)C1C(c2cccc(Cl)c2Cl)NC(=O)NC1(O)C(F)(F)F (stereo not drawn),inconclusive: -15.3%
8,O=[N+]([O-])c1nccn1CCCCCCN1CCOCC1,inactive: 1.4%
9,O=C1CCCc2oc3ccc(O)cc3c21,inactive: 2.4%
10,CCCC(CCC)c1nc2ccncc2[nH]1,active: 40.8%
11,Cc1ccc(NC(=O)COC(=O)c2ccc(CN3CCCC3=O)cc2)c(Cl)c1,inactive: -1.7%
12,O=C(Nc1nnc(Cc2ccccc2)s1)c1ccccc1,inconclusive: -18.7%
13,COc1ccccc1CNC(=O)C[n+]1ccccc1,inactive: -1.4%
14,O=C(Nc1ccc(F)cc1)N1CCCCCC1,inactive: 6.2%
15,CCCOP(=O)(c1ccc(N(C)C)cc1)C(O)c1ccc(Br)cc1 (stereo not drawn),inconclusive: -28.7%
16,Cc1ccc(N=C(N)N=C(N)N)c(C)c1,inconclusive: 53.3%
17,Cn1c(CBr)c(C(=O)c2ccc([N+](=O)[O-])cc2)c(=O)n(C)c1=O,inconclusive: 7%
18,CCc1nc2ccc(C(=O)NCCCN3CCCC3=O)cn2c1N(C=O)CC,inactive: 5.9%
19,CCOc1ccc(CCNC(=O)Nc2cccc(OC)c2)cc1OCC,inactive: -5%
20,O=C(/C=C/c1c(Cl)cccc1Cl)N1CCOCC1,inconclusive: -24.4%
21,O=C(Nc1ccc(F)cc1F)c1ccc2c(c1)[nH]c(=O)n2Cc1ccc(F)cc1,inconclusive: 13.6%
22,COc1ccc(-n2cc(CNCCCn3ccnc3)c(-c3cccc(F)c3)n2)cc1,active: 36.8%
23,O=C(COC(=O)c1ccc(O)cc1O)Nc1cc(-c2ccccc2)nn1-c1ccccc1,inconclusive: 7.8%
24,CN(C)c1ccc(S(=O)(=O)N2CCCCC2)cc1NC(=O)CN1C(=O)NC2(CCCC2)C1=O,inconclusive: -7.1%

row,Compound,inhibition
1,CCN1CCc2[nH]c3ccccc3c2C1,active: 54.5%
2,CCOc1ccc(OCCC(=O)OCC(=O)N2CCN(S(=O)(=O)c3ccc(C)cc3C)CC2)cc1,inactive: 1.2%
3,COc1ccccc1C(=O)NC(CCSC)C(=O)NCC(c1cccs1)N(C)C (stereo not drawn),inactive: 2.4%
4,O=C(/C=C/c1cccs1)N1CCN(c2ccc(F)cc2)CC1,inconclusive: 6.4%
5,Cc1cc(NC(=O)C(C)SCC(=O)OCc2ccc([N+](=O)[O-])cc2)no1 (stereo not drawn),inconclusive: 0.2%
6,N/C(=N\NC(=O)Nc1ccc(Cl)cc1)c1ccccn1,inconclusive: 26.6%
7,Cc1ccc(C)c(N2C(=O)c3ccc(C(=O)Nc4ccccn4)cc3C2=O)c1,inactive: -1.3%
8,Fc1cccc(CNC2CCN(CCc3ccccc3)CC2)c1,inconclusive: 5.7%
9,CCOC(=O)C1(CCc2ccccc2)CCN(C(C)CSC)CC1 (stereo not drawn),inconclusive: -10.8%
10,O=C1/C(=C/c2ccc(Br)cc2)Oc2cc(O)ccc21,inconclusive: -4.7%
11,COc1ccc(CC(=O)O/N=C(\N)c2ccc(OC)cc2)cc1,inconclusive: 16.4%
12,COc1ccc(NC(=O)CSc2nnc(-c3ccccn3)n2N)cc1,active: 35.1%
13,CC(=O)C1=C(c2ccccc2)NC(=O)NC1c1ccc(O)c(Cl)c1 (stereo not drawn),inconclusive: 29.1%
14,COc1cc2cc(C)c(Br)c(OC)c2cc1OC,inactive: -7.4%
15,C/C(CC(=O)Nc1ccc(C)c(Cl)c1)=N\NC(=O)c1cccc(O)c1,inconclusive: -19.7%
16,CCOc1ncccc1C(=O)Nc1cc2c(cc1Br)OCCO2,inactive: -3%
17,O=C(CSc1nc2ncccc2[nH]1)Nc1ccc2c(c1)OCO2,inconclusive: -19%
18,C=Cn1cc[n+](CC(=O)c2ccc(OC)cc2)c1,inconclusive: -8.3%
19,Cc1cc(C)n(C2CC(=O)N(c3cc(Cl)cc(Cl)c3)C2=O)n1 (stereo not drawn),inconclusive: -15.5%
20,Cc1ccc(Nc2nc(N)c([N+](=O)[O-])c(N3CCOCC3)n2)cc1C,inactive: -16.3%
21,Cc1cccc(C)c1NC(=O)C1c2ccccc2OCC(=O)N1Cc1cccnc1 (stereo not drawn),inactive: 3.5%
22,CN(C)c1ccc(NC(=O)CN2C(=O)c3ccccc3C2=O)cc1,active: 39.1%
23,Cc1ccccc1NC(=O)N1CCCC(c2nc(-c3ccc(F)cc3)no2)C1 (stereo not drawn),inactive: -4.8%
24,CN(CC(=O)NCCc1ccc(S(N)(=O)=O)cc1)Cc1c(F)cccc1Cl,active: 40.5%

row,Compound,inhibition
1,CC(C)(C)N(Cc1ccccc1)C(=O)c1cc2ccccc2o1,inconclusive: 30.6%
2,COc1ccc(OC)c(NC(=O)Cn2nc(C)c3ccccc3c2=O)c1,inactive: -12.5%
3,O=C(Nc1ccc(N2CCCC2)cc1)c1cc(Br)ccc1Cl,inconclusive: -192%
4,COc1ccc(N2CCN(CC(=O)c3c[nH]c4ccccc34)CC2)cc1,inconclusive: -33.5%
5,Cc1ccccc1NC1=C/C(=N\S(=O)(=O)c2ccc(C(=O)O)cc2)c2ccccc2C1=O,inactive: -4.5%
6,NCCc1nnc(SCC(=O)c2ccc(Cl)cc2)o1,inconclusive: 15.2%
7,Cc1ccc(-c2cc(-c3ccccc3)nc(N)c2C#N)o1,inactive: -8.5%
8,Cc1cccc(C2=N/C(=C\c3cccs3)C(=O)O2)c1,inactive: 0.2%
9,COc1ccc(OC)c(S(=O)(=O)n2ccnc2C(C)C)c1,inconclusive: 18.5%
10,Nc1ccc2nc(CCCCCCCCc3nc4ccc(N)cc4[nH]3)[nH]c2c1,inactive: -38.2%
11,CC(C)(C)NC(=O)CSc1nnc(C2CC2)n1-c1ccccc1,inactive: -0.7%
12,Cc1ccccc1OCCC(=O)OCC(=O)N1c2ccccc2NC(=O)C1(C)C,inconclusive: -1.5%
13,Cc1nc(N)c(C#N)c(-c2cccnc2)c1C,inactive: 8.3%
14,CCN(CC)S(=O)(=O)c1ccc(OC)c(NS(=O)(=O)Cc2ccccc2)c1,inconclusive: -0.9%
15,CCOC(=O)Nc1c2ccccc2nc2ccccc12,inconclusive: -2.5%
16,CCOc1ccc(CC(=O)Nc2ccc(NC(=O)c3ccco3)cc2)cc1OCC,inactive: -5.8%
17,Cc1cc(Cl)ccc1NC(=O)CN1CCCC1,inconclusive: 12.7%
18,CC(Oc1ccc(F)cc1)C(=O)N(Cc1ccccc1)c1c(N)n(Cc2ccccc2)c(=O)[nH]c1=O (stereo not drawn),inconclusive: -4.5%
19,CCCn1c(=N)n(CC(O)COc2ccc(C)cc2)c2ccccc21 (stereo not drawn),inconclusive: -111%
20,CC1(C)OC2C(O1)[C@@H](CO)O[C@H]2n1cnc2c(N)ncnc21 (stereo partly drawn),inconclusive: -18.9%
21,CCn1nc(NC(=O)c2ccccc2)c2cc3cccc(C)c3nc21,inconclusive: -35.1%
22,Cc1ccc(C)c(S(=O)(=O)N2CCN(C(=O)c3cccn3C)CC2)c1,inactive: -10.1%
23,CCOc1ccc(NC(=O)CC2C(=O)N(c3ccccc3)C(=O)N2Cc2ccco2)cc1 (stereo not drawn),inconclusive: 2.3%
24,O=Cc1ccc(N2N=C(c3ccccc3)CC2c2ccccc2)cc1 (stereo not drawn),active: 53.1%

row,Compound,inhibition
1,O=C(O)Cn1nnnc1SCC(=O)Nc1ccc(OC(F)(F)F)cc1,inconclusive: 9.3%
2,COCCCNC(=O)c1c(N)n(-c2ccc3c(c2)OCO3)c2nc3ccccc3nc12,inactive: -5.4%
3,COc1ccc(-c2nnc(SCc3c(C)noc3C)n2N)cc1OC,inactive: -0.8%
4,CCOC(=O)c1cnc2ccc(C)cc2c1OCc1cc(F)cc(F)c1,inconclusive: -11.8%
5,O=C(NCCCn1ccnc1)c1cc(-c2ccc3c(c2)OCO3)on1,inactive: -1.9%
6,CCN(c1cc(C)cc(C)c1)S(=O)(=O)c1nnc(NC(=O)C(C)(C)C)s1,inconclusive: 8.7%
7,CCC(=O)Nc1ccccc1C(=O)NC1CCCCC1,inactive: 3.4%
8,CCn1c(SCc2nc(-c3ccccc3)no2)nc2ccccc21,inactive: -3.9%
9,Cc1ccc(NC2CCCN(C(=O)c3cn(C)c4ccccc34)C2)cc1C (stereo not drawn),inactive: 2.3%
10,O=C(CSc1nnc(SCc2cccc3ccccc23)s1)Nc1ccc(C(=O)O)cc1,inactive: 3.4%
11,CC(C)(C)c1ccc2c(c1)N(CC(=O)N1CCCC1)C(=O)CO2,inactive: -1.5%
12,CS(=O)(=O)Oc1ccc(Br)c2cccnc12,inconclusive: -16.3%
13,O=C(NCCS(=O)(=O)NCc1cccnc1)c1ccccc1,inconclusive: -28.6%
14,COc1cc(-c2nc3cc(C)ccn3c2NC2CCCCC2)ccc1-c1ccc(C(C)=O)cc1,inactive: 17.7%
15,CC(C)N(C)Cc1cn(C)nc1-c1ccc(Oc2ccccc2)cc1,active: 35.5%
16,Cc1cc(C)nc(NC(=O)c2ccccc2O)n1,inconclusive: -4.5%
17,Cc1ccc(Oc2ncccc2NC(=O)CC(CC(=O)O)c2ccccc2)c2c1CCC2 (stereo not drawn),inconclusive: 46.5%
18,COC(=O)c1cc(NS(=O)(=O)c2ccc(C)c3ccccc23)ccc1N1CCOCC1,inconclusive: -44.4%
19,O=C(C1=NN[C@@H]2C(=O)N(c3cccc(C(F)(F)F)c3)C(=O)[C@H]12)c1cnccn1,inconclusive: -2.4%
20,Cc1cc(-n2cnc(-c3cn(C)nc3C)n2)no1,inconclusive: -37.1%
21,CCOC(=O)CSc1nc2sc3c(c2c(=O)n1-c1ccc(OC)cc1)CCN(C)C3,inconclusive: -21.8%
